These results are taken from patent US20240174768A1.

The target in the assay is NKG2D-based chimeric activating receptor NKAR (human). Nature of the assay: flow cytometry, His-tagged sMICA on NKAR-NK-92 cells, anti-His-tag detection. (In general: Flow cytometry measures light scatter and fluorescence of single cells or particles in a stream.)

Results are given in words; binding and its absence hold for the method and conditions named. Some binding calls cover weakened binding; strength is not graded here. Sequences can lack the tags named with a protein.

B1: recombinant His-tagged human MICA (ligand, UniProt Q29983 24-307, looked up, not shown: small tags and cut ends)
chain: EPHSLRYNLTVLSWDGSVQSGFLTEVHLDGQPFLRCDRQKCRAKPQGQWAEDVLGNKTWDRETRDLTGNGKDLRMTLAHIKDQKEGLHSLQEIRVCEIHEDNSTRSSQHFYYDGELFLSQNLETKEWTMPQSSRAQTLAMNVRNFLKEDAMKTKTHYHAMHADCLQELRRYLKSGVVLRRTVPPMVNVTRSEASEGNITVTCRASGFYPWNITLSWRQDGVSLSHDTQQWGDVLPDGNGTYQTWVATRICQGEEQRFTCYMEHSGNHSTHPVPSGKVLVLQSHW
As for B1, the binding result is recorded as “binds”.
